Assay results as given in patent US9718825B2, “N-(4-(azaindazol-6-yl)-phenyl)-sulfonamides and their use as pharmaceuticals” (priority 2013, dated 2017).
The structures given here were assigned with low confidence; some may be wrong.

The chains behind the UniProt entries cited, without tags or fusion partners.
UniProt O00141, whole entry, looked up: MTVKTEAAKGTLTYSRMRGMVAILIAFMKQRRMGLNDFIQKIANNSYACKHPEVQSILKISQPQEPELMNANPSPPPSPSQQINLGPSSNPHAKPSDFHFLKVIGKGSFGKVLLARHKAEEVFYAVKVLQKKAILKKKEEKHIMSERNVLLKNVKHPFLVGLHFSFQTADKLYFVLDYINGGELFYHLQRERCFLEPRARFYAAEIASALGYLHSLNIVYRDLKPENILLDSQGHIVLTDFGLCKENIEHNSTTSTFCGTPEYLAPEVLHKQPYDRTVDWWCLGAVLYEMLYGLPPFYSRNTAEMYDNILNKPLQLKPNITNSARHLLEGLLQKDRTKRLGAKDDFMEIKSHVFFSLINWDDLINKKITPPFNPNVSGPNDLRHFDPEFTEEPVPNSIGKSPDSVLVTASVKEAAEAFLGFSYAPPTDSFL

Target: SGK-1 dependent phosphorylation of GSK3beta in U2OS cells (UniProt O00141)
Test: SGK-1 dependent phosphorylation of GSK3beta in U2OS cells overexpressing recombinant SGK-1 and GSK3beta
Type: cell-based, human
Details: read-out: IC50 values for inhibition of SGK-1 dependent phosphorylation of GSK3beta in U2OS cells, 6 h incubation, ratio of phosphorylated GSK3beta to total GSK3beta

Compound: COc1nc(-c2ccc(NS(=O)(=O)c3cc(C)ccc3F)cc2)nc2[nH]ncc12
- IC50: 1.4 µM
